This note sets out measurements from publication PMC7835381.

The assay deals with EGF receptor (EGFR), mouse, endogenous in primary keratinocytes (mouse (endogenous in primary keratinocytes)) (UniProt Q01279). The assay is described as follows: proximity ligation; in situ PLA (Duolink) with anti-EGFR antibody on primary C6st-1 WT, HE and KO mouse keratinocytes; keratinocytes digested with chondroitinase ABC as control.

No constants are given. Whether binding was seen depends on the method and setting. Binding seen in cells or lysates may run through a third protein. Some entries that bind do so weakly or less than the wild type.

For the substance “EGF receptor (EGFR), mouse, endogenous in primary keratinocytes (from UniProt Q01279 25-1210)”, the binding result is “binds”.
